{"source": "PubChem BioAssay AID1259307 – Sanger Institute – 2017", "aim": "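siRNA kinome screen seeking kinases whose loss harms SW620 cells alone or with drugs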 (primary screen)", "cell system": "SW620 colorectal cancer cells", "knock-down reagent": "siRNA pool against human genes", "conditions": "anchor drugs BYL719 at 1 µM, cetuximab at 5 µg/ml or trametinib at 10 nM, each beside a DMSO vehicle arm", "read-out": "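Per-well viability versus non-targeting control pool, replicate-averaged, robust z-score from controls; synergy scores for BYL719 1 µM, cetuximab 5 µg/ml, trametinib 10 nM against DMSO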", "scale": "viability robust z-score, no drug: higher = more viable cells", "rule for the call": "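Essential when the viability robust z-score without drug is under -3; synergy scores are ignored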", "meaning of the calls": "active = essential (lethal alone); inactive = no change alone", "note": "The deposit covers 794 reagents; this is a part drawn at random. 15 of them (1.9%) were called active. 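Calls reflect lethality without any drug; synergy scores did not enter the calls.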 Further read-outs or replicates are left out here. The record does not give: the amount of reagent, the time to read-out."}
{"target gene": "CDKL5 (cyclin dependent kinase like 5)", "PubChem SID": "SID135620888", "viability robust z-score, no drug": 0.421, "call": "inactive"}
{"target gene": "CDK4 (cyclin dependent kinase 4)", "PubChem SID": "SID56478598", "viability robust z-score, no drug": 0.354, "call": "inactive"}
{"target gene": "POMK (protein O-mannose kinase)", "PubChem SID": "SID56479008", "viability robust z-score, no drug": 0.271, "call": "inactive"}
{"target gene": "CDC73 (cell division cycle 73)", "PubChem SID": "SID134319235", "viability robust z-score, no drug": -1.25, "call": "inactive"}
{"target gene": "EIF2AK4 (eukaryotic translation initiation factor 2 alpha kinase 4)", "PubChem SID": "SID152146907", "viability robust z-score, no drug": -0.466, "call": "inactive"}
{"target gene": "PIP4K2C (phosphatidylinositol-5-phosphate 4-kinase type 2 gamma)", "PubChem SID": "SID56478804", "viability robust z-score, no drug": -1.13, "call": "inactive"}
{"target gene": "FGFR1 (fibroblast growth factor receptor 1)", "PubChem SID": "SID135620619", "viability robust z-score, no drug": -0.0447, "call": "inactive"}
{"target gene": "AK4 (adenylate kinase 4)", "PubChem SID": "SID152149659", "viability robust z-score, no drug": 0.607, "call": "inactive"}
{"target gene": "ETNK1 (ethanolamine kinase 1)", "PubChem SID": "SID152152739", "viability robust z-score, no drug": 0.736, "call": "inactive"}
{"target gene": "GRK6 (G protein-coupled receptor kinase 6)", "PubChem SID": "SID135620853", "viability robust z-score, no drug": -0.857, "call": "inactive"}
{"target gene": "STK33 (serine/threonine kinase 33)", "PubChem SID": "SID56479053", "viability robust z-score, no drug": -0.108, "call": "inactive"}
{"target gene": "MAP3K11 (mitogen-activated protein kinase kinase kinase 11)", "PubChem SID": "SID152156459", "viability robust z-score, no drug": 0.736, "call": "inactive"}
{"target gene": "UCK2 (uridine-cytidine kinase 2)", "PubChem SID": "SID56478981", "viability robust z-score, no drug": 0.736, "call": "inactive"}
{"target gene": "TK2 (thymidine kinase 2)", "PubChem SID": "SID152153963", "viability robust z-score, no drug": 0.175, "call": "inactive"}
{"target gene": "FXR1 (FMR1 autosomal homolog 1)", "PubChem SID": "SID152147249", "viability robust z-score, no drug": 0.736, "call": "inactive"}
{"target gene": "DGKI (diacylglycerol kinase iota)", "PubChem SID": "SID56479093", "viability robust z-score, no drug": 0.736, "call": "inactive"}
{"target gene": "TESK1 (testis associated actin remodelling kinase 1)", "PubChem SID": "SID152149255", "viability robust z-score, no drug": 0.736, "call": "inactive"}
{"target gene": "GRK4 (G protein-coupled receptor kinase 4)", "PubChem SID": "SID152155634", "viability robust z-score, no drug": -0.255, "call": "inactive"}
{"target gene": "PIP5K1B (phosphatidylinositol-4-phosphate 5-kinase type 1 beta)", "PubChem SID": "SID152154468", "viability robust z-score, no drug": -1.93, "call": "inactive"}
{"target gene": "CDK19 (cyclin dependent kinase 19)", "PubChem SID": "SID56478856", "viability robust z-score, no drug": 0.736, "call": "inactive"}
{"target gene": "PIK3C2G", "PubChem SID": "SID152155956", "viability robust z-score, no drug": 0.118, "call": "inactive"}
{"target gene": "RELA (RELA proto-oncogene, NF-kB subunit)", "PubChem SID": "SID135620694", "viability robust z-score, no drug": 0.619, "call": "inactive"}
{"target gene": "RTN4 (reticulon 4)", "PubChem SID": "SID134315213", "viability robust z-score, no drug": 0.736, "call": "inactive"}
{"target gene": "MAP4K3 (mitogen-activated protein kinase kinase kinase kinase 3)", "PubChem SID": "SID135620707", "viability robust z-score, no drug": 0.682, "call": "inactive"}
{"target gene": "EIF2AK2 (eukaryotic translation initiation factor 2 alpha kinase 2)", "PubChem SID": "SID56478676", "viability robust z-score, no drug": 0.0383, "call": "inactive"}
{"target gene": "SRPK3 (SRSF protein kinase 3)", "PubChem SID": "SID135620894", "viability robust z-score, no drug": 0.736, "call": "inactive"}
{"target gene": "CDK11B (cyclin dependent kinase 11B)", "PubChem SID": "SID152152958", "viability robust z-score, no drug": -2.12, "call": "inactive"}
{"target gene": "PIP5K1C (phosphatidylinositol-4-phosphate 5-kinase type 1 gamma)", "PubChem SID": "SID134310630", "viability robust z-score, no drug": -1.16, "call": "inactive"}

5 consecutive reagents from above:
{"target gene": "MAP4K3 (mitogen-activated protein kinase kinase kinase kinase 3)", "PubChem SID": "SID135620707", "viability robust z-score, no drug": 0.682, "call": "inactive"}
{"target gene": "EIF2AK2 (eukaryotic translation initiation factor 2 alpha kinase 2)", "PubChem SID": "SID56478676", "viability robust z-score, no drug": 0.0383, "call": "inactive"}
{"target gene": "SRPK3 (SRSF protein kinase 3)", "PubChem SID": "SID135620894", "viability robust z-score, no drug": 0.736, "call": "inactive"}
{"target gene": "CDK11B (cyclin dependent kinase 11B)", "PubChem SID": "SID152152958", "viability robust z-score, no drug": -2.12, "call": "inactive"}
{"target gene": "PIP5K1C (phosphatidylinositol-4-phosphate 5-kinase type 1 gamma)", "PubChem SID": "SID134310630", "viability robust z-score, no drug": -1.16, "call": "inactive"}
